Results are given in words; binding and its absence hold for the method and conditions named. Binding seen in cells or lysates may run through a third protein. Some results given as binding are weak or reduced against the parent protein; the word gives no strength.

The chains behind the UniProt entries cited, without tags or fusion partners.
UniProt Q15797: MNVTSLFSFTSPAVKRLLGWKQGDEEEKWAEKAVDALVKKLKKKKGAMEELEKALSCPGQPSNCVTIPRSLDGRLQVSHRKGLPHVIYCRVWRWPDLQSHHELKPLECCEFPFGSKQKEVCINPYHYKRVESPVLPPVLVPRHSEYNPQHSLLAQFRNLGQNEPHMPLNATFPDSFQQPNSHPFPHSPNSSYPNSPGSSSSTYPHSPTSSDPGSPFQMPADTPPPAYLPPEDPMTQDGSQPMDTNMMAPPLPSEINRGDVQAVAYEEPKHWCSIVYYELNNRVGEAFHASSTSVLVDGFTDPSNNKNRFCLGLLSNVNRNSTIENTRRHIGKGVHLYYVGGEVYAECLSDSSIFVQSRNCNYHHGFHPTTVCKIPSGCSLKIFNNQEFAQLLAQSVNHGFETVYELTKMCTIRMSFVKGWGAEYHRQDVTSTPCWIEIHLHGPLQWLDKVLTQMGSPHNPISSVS
UniProt Q12778: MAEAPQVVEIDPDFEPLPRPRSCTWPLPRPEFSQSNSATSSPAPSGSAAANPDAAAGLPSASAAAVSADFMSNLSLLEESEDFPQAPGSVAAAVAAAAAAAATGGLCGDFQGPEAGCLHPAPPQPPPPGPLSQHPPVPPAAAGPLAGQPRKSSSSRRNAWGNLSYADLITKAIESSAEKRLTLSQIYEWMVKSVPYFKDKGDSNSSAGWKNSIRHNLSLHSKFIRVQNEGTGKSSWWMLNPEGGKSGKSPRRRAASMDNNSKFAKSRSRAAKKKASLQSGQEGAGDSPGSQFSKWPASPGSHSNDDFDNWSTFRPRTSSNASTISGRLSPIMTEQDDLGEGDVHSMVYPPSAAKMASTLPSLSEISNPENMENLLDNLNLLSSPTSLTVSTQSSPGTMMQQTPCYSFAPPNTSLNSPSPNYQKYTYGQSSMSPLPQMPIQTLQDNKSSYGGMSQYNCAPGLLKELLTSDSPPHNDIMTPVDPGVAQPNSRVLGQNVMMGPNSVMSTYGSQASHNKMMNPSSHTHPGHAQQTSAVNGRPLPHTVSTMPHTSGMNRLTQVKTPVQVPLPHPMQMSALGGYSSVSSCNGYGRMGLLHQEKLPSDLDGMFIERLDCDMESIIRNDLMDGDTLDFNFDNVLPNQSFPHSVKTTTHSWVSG

Assay [1] concerns the target SMAD1 (human (endogenous in HAoECs)) (UniProt Q15797). Nature of the assay: co-IP.
Assay [2] has the same target. Nature of the assay: proximity ligation.

As for “FOXO1 (Forkhead Box O1) (from UniProt Q12778 1-655)”, the binding entry in assay [1] and in assay [2] was “binds” in each case.

The record behind these values is publication doi:10.1101/2024.11.25.625323.
